Measured values from the supplement of paper PMC10849652.
The other results are listed elsewhere or left out.

Protein sequences, listed by entry. Tags and fused reporters are not part of them. Lines headed by an entry give the natural chain unless they say otherwise; changes in a name come on top.
UniProt Q9BV57: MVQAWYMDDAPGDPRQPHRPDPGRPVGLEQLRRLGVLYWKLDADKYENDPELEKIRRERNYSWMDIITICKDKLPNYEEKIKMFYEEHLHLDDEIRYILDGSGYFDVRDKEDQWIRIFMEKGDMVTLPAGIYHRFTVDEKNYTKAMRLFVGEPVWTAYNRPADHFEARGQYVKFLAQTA
UniProt P14550: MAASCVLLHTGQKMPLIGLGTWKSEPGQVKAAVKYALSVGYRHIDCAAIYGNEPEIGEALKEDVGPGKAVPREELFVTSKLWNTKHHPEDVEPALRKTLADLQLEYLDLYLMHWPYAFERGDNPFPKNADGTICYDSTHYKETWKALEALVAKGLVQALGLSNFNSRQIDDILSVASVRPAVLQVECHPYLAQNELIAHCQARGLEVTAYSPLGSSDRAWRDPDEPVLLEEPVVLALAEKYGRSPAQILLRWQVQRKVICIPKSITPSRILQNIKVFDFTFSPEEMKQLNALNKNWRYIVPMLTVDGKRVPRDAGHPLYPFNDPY
UniProt P42330: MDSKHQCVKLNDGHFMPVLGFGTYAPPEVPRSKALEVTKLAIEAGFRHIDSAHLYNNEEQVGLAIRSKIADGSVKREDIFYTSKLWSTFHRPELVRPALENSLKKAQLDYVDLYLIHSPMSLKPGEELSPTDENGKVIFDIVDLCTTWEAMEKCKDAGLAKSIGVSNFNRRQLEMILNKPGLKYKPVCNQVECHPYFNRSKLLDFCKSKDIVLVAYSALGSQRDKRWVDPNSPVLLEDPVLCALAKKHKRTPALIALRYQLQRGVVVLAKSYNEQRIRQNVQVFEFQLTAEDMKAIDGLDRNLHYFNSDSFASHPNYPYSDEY
UniProt O14734: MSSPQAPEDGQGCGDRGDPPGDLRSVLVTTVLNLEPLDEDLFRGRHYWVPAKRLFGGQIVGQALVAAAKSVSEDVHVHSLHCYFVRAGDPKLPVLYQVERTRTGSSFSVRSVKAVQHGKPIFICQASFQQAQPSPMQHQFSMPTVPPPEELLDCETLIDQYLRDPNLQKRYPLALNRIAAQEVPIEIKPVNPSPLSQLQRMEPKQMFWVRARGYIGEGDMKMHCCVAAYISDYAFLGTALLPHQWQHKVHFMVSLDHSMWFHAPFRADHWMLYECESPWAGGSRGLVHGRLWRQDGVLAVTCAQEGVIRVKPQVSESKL
UniProt P42025, whole entry, looked up: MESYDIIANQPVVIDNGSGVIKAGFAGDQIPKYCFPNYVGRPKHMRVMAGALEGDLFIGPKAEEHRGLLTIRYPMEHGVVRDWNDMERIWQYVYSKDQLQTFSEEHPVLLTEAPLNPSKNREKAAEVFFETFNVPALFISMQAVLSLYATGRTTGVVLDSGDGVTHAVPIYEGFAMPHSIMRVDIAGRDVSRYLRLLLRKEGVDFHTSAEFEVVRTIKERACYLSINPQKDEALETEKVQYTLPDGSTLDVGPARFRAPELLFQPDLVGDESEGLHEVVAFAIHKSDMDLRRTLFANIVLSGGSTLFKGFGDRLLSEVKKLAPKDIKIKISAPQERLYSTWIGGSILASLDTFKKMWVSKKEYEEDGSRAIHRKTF
UniProt Q96P47: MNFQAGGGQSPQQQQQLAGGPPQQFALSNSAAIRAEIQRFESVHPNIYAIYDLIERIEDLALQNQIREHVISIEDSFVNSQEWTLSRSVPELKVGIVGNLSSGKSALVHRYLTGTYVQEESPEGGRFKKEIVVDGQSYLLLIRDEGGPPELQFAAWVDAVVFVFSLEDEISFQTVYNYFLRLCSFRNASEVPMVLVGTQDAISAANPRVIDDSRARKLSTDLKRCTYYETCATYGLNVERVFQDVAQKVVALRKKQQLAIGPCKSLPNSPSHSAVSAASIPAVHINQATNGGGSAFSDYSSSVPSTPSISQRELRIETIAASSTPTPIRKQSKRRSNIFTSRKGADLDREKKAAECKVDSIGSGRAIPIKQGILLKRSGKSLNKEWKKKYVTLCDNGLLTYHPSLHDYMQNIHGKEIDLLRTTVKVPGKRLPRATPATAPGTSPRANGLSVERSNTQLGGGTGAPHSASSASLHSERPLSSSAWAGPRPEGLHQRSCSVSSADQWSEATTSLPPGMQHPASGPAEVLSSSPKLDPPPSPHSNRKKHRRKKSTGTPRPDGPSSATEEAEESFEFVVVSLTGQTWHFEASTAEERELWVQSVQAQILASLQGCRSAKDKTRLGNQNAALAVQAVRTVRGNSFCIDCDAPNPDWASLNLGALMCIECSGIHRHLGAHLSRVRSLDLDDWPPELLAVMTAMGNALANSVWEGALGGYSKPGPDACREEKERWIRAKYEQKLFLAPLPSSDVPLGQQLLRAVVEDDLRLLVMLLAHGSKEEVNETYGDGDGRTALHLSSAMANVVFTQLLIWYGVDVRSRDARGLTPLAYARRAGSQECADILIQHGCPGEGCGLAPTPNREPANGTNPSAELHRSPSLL
UniProt P35573: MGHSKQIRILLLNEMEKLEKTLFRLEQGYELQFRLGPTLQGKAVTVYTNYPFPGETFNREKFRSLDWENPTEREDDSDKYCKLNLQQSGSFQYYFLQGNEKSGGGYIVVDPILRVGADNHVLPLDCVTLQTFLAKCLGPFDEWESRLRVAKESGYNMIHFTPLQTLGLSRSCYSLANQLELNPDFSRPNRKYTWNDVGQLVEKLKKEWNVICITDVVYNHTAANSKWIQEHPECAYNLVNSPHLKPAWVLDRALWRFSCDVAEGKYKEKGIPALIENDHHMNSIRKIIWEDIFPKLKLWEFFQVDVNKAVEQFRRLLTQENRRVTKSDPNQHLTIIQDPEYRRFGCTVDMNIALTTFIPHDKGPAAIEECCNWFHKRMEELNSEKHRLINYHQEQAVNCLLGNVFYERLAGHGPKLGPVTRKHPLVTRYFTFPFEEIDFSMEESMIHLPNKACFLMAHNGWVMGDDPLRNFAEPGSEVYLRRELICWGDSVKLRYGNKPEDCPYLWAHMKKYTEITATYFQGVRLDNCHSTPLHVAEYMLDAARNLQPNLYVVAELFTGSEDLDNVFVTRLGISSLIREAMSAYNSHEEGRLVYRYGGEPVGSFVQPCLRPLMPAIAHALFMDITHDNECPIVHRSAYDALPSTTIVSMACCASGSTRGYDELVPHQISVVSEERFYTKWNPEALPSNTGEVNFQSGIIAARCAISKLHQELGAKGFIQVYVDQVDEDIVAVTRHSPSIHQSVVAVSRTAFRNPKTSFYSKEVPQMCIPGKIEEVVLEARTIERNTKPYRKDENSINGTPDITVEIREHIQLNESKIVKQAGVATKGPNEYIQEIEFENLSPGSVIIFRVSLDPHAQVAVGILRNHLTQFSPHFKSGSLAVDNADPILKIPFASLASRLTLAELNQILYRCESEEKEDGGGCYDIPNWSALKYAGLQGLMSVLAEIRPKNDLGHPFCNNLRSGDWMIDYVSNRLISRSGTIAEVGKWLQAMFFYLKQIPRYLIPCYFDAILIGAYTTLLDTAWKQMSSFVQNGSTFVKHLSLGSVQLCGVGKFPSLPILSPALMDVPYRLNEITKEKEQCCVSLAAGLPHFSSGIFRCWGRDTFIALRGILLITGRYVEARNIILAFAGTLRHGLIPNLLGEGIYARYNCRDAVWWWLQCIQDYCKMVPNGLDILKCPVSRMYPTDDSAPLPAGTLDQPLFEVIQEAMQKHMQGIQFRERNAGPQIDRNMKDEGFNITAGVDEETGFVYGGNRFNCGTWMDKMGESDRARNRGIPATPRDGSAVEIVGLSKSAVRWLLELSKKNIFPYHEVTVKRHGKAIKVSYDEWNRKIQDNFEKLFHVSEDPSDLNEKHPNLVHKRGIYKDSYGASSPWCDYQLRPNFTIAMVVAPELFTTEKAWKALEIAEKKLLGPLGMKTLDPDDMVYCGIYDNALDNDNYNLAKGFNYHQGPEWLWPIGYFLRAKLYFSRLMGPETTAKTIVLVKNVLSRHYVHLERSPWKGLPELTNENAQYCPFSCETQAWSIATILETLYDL
UniProt P30566: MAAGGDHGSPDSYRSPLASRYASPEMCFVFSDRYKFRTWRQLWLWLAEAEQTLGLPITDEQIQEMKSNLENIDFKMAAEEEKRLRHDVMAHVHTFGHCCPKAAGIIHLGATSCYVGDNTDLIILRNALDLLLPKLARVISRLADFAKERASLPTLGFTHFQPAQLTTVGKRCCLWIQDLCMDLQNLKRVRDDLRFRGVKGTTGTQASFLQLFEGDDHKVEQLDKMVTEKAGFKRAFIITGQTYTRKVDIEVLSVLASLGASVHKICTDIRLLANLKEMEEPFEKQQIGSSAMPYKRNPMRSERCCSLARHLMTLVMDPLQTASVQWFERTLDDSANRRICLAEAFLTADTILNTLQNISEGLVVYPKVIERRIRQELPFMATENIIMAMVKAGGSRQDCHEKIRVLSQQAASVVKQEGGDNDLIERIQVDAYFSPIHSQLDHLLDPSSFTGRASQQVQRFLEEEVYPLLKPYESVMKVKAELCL
UniProt Q9BRR6: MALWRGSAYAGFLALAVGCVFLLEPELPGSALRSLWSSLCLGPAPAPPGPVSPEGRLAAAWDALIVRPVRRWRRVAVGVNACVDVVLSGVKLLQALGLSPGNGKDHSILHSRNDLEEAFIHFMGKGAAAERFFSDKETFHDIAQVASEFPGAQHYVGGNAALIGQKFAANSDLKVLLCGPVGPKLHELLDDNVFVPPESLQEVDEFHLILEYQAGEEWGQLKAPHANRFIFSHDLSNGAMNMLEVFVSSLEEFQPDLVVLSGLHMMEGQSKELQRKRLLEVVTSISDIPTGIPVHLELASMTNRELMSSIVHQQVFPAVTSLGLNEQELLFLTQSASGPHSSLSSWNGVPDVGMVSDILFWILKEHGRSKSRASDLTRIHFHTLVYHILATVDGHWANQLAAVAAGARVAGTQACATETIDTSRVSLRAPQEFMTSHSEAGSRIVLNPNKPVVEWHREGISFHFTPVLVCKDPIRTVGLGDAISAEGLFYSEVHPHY
UniProt Q16186: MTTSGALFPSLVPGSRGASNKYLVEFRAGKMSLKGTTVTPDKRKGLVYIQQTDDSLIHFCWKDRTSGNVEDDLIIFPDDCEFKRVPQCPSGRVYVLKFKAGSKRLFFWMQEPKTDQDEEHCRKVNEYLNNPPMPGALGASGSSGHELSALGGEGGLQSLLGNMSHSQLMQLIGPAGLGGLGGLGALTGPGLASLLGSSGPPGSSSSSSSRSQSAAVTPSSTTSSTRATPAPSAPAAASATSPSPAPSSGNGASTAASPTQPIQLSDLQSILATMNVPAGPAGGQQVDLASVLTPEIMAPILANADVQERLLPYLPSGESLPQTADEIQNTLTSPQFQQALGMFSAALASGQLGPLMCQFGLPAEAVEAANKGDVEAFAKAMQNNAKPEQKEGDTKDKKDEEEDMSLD
UniProt Q15067: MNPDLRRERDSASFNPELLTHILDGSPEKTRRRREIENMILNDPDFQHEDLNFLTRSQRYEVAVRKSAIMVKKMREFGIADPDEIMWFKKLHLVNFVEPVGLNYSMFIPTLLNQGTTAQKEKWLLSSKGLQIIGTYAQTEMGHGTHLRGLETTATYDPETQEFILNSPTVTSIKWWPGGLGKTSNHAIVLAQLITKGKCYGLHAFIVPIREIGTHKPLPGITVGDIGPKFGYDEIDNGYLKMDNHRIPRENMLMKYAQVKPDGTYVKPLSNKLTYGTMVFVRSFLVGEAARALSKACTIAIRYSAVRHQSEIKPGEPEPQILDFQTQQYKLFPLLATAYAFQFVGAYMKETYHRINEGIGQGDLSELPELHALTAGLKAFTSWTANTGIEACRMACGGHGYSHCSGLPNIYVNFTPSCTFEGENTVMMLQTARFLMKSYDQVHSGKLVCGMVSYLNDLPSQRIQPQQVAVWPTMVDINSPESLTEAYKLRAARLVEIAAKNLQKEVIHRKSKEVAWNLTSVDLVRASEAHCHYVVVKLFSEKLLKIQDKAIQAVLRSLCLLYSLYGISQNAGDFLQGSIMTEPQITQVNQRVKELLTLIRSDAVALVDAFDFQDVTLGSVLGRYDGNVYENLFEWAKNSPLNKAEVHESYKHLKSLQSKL
UniProt Q96HN2, whole entry, looked up: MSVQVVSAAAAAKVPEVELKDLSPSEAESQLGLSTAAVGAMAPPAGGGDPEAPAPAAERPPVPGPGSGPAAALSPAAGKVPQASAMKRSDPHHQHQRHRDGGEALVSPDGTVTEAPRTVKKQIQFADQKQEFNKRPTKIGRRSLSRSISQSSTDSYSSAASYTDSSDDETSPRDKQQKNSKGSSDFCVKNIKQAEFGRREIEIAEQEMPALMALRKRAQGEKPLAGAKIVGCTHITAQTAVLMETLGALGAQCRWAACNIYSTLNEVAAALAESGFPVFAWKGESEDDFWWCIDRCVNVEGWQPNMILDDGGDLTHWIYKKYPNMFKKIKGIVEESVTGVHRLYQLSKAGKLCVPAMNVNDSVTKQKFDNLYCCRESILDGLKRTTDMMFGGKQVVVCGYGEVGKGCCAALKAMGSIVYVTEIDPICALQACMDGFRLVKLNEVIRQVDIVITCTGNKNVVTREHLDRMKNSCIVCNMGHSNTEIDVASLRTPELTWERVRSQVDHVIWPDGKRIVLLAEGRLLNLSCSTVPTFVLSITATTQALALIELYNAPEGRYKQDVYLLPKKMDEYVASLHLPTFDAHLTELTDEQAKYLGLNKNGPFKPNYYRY

Columns and labels:
Assay in all cases: log2 fold change, soluble protein after heating vs DMSO (PISA); higher = thermal stabilisation; K562 lysate, 10 uM; active = over 0.2 and 3.5 SD of the protein, either way, in both replicates (recomputed)
[1] = compound: CCCS(=O)(=O)Nc1ccc(F)c(C(=O)c2c[nH]c3ncc(-c4ccc(Cl)cc4)cc23)c1F [vemurafenib]
How it was run: (§1)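 The values are log-two fold changes in thermal stability compared with solvent controls and come from duplicates. They were obtained by TMTpro 16plex LC-MS/MS, with channel sums equalised, on the supernatant after 21,000xg for 90 min. That supernatant came from crude K562 extract at 1 mg/mL protein treated with 10 μM compound for 30 min, heated for 3 min across 48°C-58°C, pooled and brought to 0.5% NP-40 at 4°C.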

[2] = compound: CCCS(=O)(=O)Nc1ccc(F)c(C(=O)c2c[nH]c3ncc(Cl)cc23)c1F
How it was run: as §1

[3] = compound: CCN(CCCOc1ccc2c(Nc3cc(CC(=O)Nc4cccc(F)c4)[nH]n3)ncnc2c1)CCOP(=O)(O)O [barasertib]
How it was run: as §1

[4] = compound: CC[C@@H]1C(=O)N(C)c2cnc(Nc3ccc(C(=O)NC4CCN(C)CC4)cc3OC)nc2N1C1CCCC1
How it was run: as §1

[5] = compound: CC[C@@H]1C(=O)N(C)c2cnc(Nc3ccc(C(=O)N[C@H]4CC[C@H](N5CCN(CC6CC6)CC5)CC4)cc3OC)nc2N1C(C)C [volasertib]
How it was run: as §1

[6] = compound: CCn1c(C(=O)N(C2CC2)C2CC2)cc2c3c(ncn3C)c(Nc3cc(C)n(C)n3)nc21
How it was run: as §1

[7] = compound: CCn1cc(-c2ccnc3[nH]c(-c4cccc(CN(C)C)c4)cc23)c(-c2ccc(NC(=O)N(C)C)cc2)n1
How it was run: as §1

[8] = compound: CN1CCC(CNc2ccc3ncc(-c4cccc(OC(F)(F)F)c4)n3n2)CC1
How it was run: as §1

[9] = compound: CN1CCN(CCOc2cc(OC3CCOCC3)c3c(Nc4c(Cl)ccc5c4OCO5)ncnc3c2)CC1 [saracatinib]
How it was run: as §1

[10] = compound: CN1CCN(c2nc(C3=C(c4c[nH]c5ccccc45)C(=O)NC3=O)c3ccccc3n2)CC1 [sotrastaurin]
How it was run: as §1

[11] = compound: CN1CC[C@H](c2c(O)cc(O)c3c(=O)cc(-c4ccccc4Cl)oc23)[C@H](O)C1 [alvocidib]
How it was run: as §1

[12] = compound: CN1CCc2c(c3ccccc3n2Cc2ccc(C(=O)NO)cc2)C1 [Tubastatin A]
How it was run: as §1

[13] = compound: CNC(=O)C1=CC=CC=C1NC2=NC(=NC=C2Cl)NC3=C(C=C(C=C3)N4CCOCC4)OC
How it was run: as §1

[14] = compound: CNC(=O)c1ccc(Nc2ncc(C(F)(F)F)c(NCc3nccnc3N(C)S(C)(=O)=O)n2)cc1 [defactinib]
How it was run: as §1

[15] = compound: CNc1nc(-c2ccc3c(N)n[nH]c3c2)cc(N2C[C@@H](C(=O)NC3CCCCC3)CC[C@H]2C)n1
How it was run: as §1

[16] = compound: COC(=O)N[C@@H](C)CNc1nccc(-c2cn(C(C)C)nc2-c2cc(Cl)cc(NS(C)(=O)=O)c2F)n1 [encorafenib]
How it was run: as §1

[17] = compound: COC(=O)[C@H](CCSC)NC(=O)C1=C(C=C(C=C1)NC[C@H](CS)N)C2=CC=CC=C2
How it was run: as §1

[18] = compound: COc1cc(Nc2ncc3c(n2)-c2ccc(Cl)cc2C(c2c(F)cccc2OC)=NC3)ccc1C(=O)O [alisertib]
How it was run: as §1

[19] = compound: COc1cc2nc(-c3cc(F)ccc3O)nc(N[C@@H]3CNC[C@H]3C(C)(C)O)c2cc1OC
How it was run: as §1

[20] = compound: COc1cc2ncnc(Nc3ccc(F)c(Cl)c3)c2cc1OCCCN1CCOCC1 [gefitinib]
How it was run: as §1

Row | Target | log2 fold change [1] | log2 fold change [2] | log2 fold change [3] | log2 fold change [4] | log2 fold change [5] | log2 fold change [6] | log2 fold change [7] | log2 fold change [8] | log2 fold change [9] | log2 fold change [10] | log2 fold change [11] | log2 fold change [12] | log2 fold change [13] | log2 fold change [14] | log2 fold change [15] | log2 fold change [16] | log2 fold change [17] | log2 fold change [18] | log2 fold change [19] | log2 fold change [20]
1 | ADI1 (UniProt Q9BV57) | inactive: -0.006 | inactive: 0.004 | inactive: 0.074 | inactive: 0.061 | inactive: -0.028 | inactive: -0.009 | inactive: -0.115 | inactive: 0.104 | inactive: 0.036 | inactive: 0.059 | inactive: -0.002 | inactive: 0.004 | inactive: -0.016 | inactive: 0.042 | inactive: -0.128 | inactive: -0.062 | inactive: 0.029 | inactive: 0.023 | inactive: 0.02 | inactive: 0.043
2 | AGPAT5 (UniProt Q9NUQ2) | inactive: 0.029 | inactive: 0.059 | inactive: 0.006 | inactive: -0.056 | inactive: -0.031 | inactive: -0.015 | inactive: -0.001 | inactive: -0.126 | inactive: 0.05 | inactive: 0.021 | inactive: 0.081 | inactive: 0.016 | inactive: -0.065 | inactive: 0 | inactive: -0.015 | inactive: -0.004 | inactive: 0.006 | inactive: -0.024 | inactive: -0.074 | inactive: -0.025
3 | AKR1A1 (UniProt P14550) | inactive: 0.012 | inactive: 0.006 | inactive: -0.016 | inactive: -0.005 | inactive: -0.015 | inactive: -0.001 | inactive: 0.156 | inactive: -0.015 | inactive: -0.031 | inactive: -0.015 | inactive: -0.006 | inactive: 0.01 | inactive: -0.007 | inactive: -0.008 | inactive: 0.001 | inactive: -0.044 | inactive: 0.052 | inactive: -0.014 | inactive: -0.006 | inactive: 0.024
4 | AKR1C3 (UniProt P42330) | inactive: 0.01 | inactive: 0.023 | inactive: -0.033 | inactive: 0.091 | inactive: -0.027 | inactive: -0.05 | inactive: -0.034 | inactive: 0.059 | inactive: 0.187 | inactive: 0.044 | inactive: 0.026 | inactive: 0.073 | inactive: -0.052 | inactive: 0.017 | inactive: -0.211 | inactive: -0.026 | inactive: 0.022 | inactive: 0.056 | inactive: 0.028 | inactive: -0.003
5 | ACOT8 (UniProt O14734) | inactive: 0.022 | inactive: -0.013 | inactive: -0.042 | inactive: 0.02 | inactive: -0.028 | inactive: -0.019 | inactive: -0.127 | inactive: 0.015 | inactive: 0.011 | inactive: 0.023 | inactive: -0.047 | inactive: 0.043 | inactive: -0.025 | inactive: -0.024 | inactive: 0.036 | inactive: 0.005 | inactive: -0.203 | inactive: 0.014 | inactive: 0.007 | inactive: -0.07
6 | ACTR1B (UniProt P42025) | inactive: -0.038 | inactive: 0.038 | inactive: 0.024 | inactive: 0.059 | inactive: -0.001 | inactive: -0.018 | inactive: -0.099 | inactive: 0.038 | inactive: 0.019 | inactive: 0.046 | inactive: 0.012 | inactive: 0.025 | inactive: -0.028 | inactive: -0.022 | inactive: 0.096 | inactive: -0.019 | inactive: 0.084 | inactive: 0.006 | inactive: -0.01 | inactive: 0.057
7 | AGAP3 isoform 4 (UniProt Q96P47) | inactive: -0.063 | inactive: 0.042 | inactive: 0.006 | inactive: -0.02 | inactive: -0.026 | inactive: 0.01 | inactive: 0.036 | inactive: -0.035 | inactive: 0.005 | inactive: 0.072 | inactive: -0.005 | inactive: -0.017 | inactive: 0.044 | inactive: -0.02 | inactive: -0.026 | inactive: 0.038 | inactive: 0.025 | inactive: -0.005 | inactive: -0.001 | inactive: 0.026
8 | AGL (UniProt P35573) | inactive: -0.014 | inactive: 0.002 | inactive: -0.015 | inactive: -0.063 | inactive: -0.058 | inactive: 0.013 | inactive: 0.131 | inactive: -0.083 | inactive: 0.013 | inactive: 0.049 | inactive: 0.046 | inactive: -0.099 | inactive: 0.014 | inactive: 0.024 | inactive: -0.002 | inactive: 0.008 | inactive: 0.178 | inactive: -0.004 | inactive: -0.012 | inactive: -0.007
9 | ADSL (UniProt P30566) | inactive: 0.012 | inactive: -0.003 | inactive: -0.042 | inactive: 0.051 | inactive: 0.043 | inactive: 0.004 | inactive: 0.103 | inactive: -0.07 | inactive: 0.002 | inactive: -0.01 | inactive: 0.04 | inactive: 0.043 | inactive: 0 | inactive: -0.014 | inactive: 0.013 | inactive: -0.02 | inactive: -0.196 | inactive: -0.001 | inactive: 0.001 | inactive: -0.007
10 | ACSF3 (UniProt Q4G176) | inactive: 0.074 | inactive: 0.07 | inactive: 0.014 | inactive: 0.025 | inactive: -0.068 | inactive: 0.022 | inactive: -0.058 | inactive: -0.066 | inactive: -0.014 | inactive: 0.005 | inactive: -0.025 | inactive: -0.037 | inactive: 0.027 | inactive: 0.035 | inactive: -0.013 | inactive: -0.052 | inactive: -0.044 | inactive: 0.014 | inactive: -0.023 | inactive: 0.052
11 | ADPGK (UniProt Q9BRR6) | inactive: -0.029 | inactive: -0.013 | inactive: -0.009 | inactive: 0 | inactive: 0.058 | inactive: 0.065 | inactive: -0.076 | inactive: -0.005 | inactive: -0.002 | inactive: 0.01 | inactive: -0.008 | inactive: -0.001 | inactive: 0.097 | inactive: 0.015 | inactive: -0.09 | inactive: 0.033 | inactive: -0.025 | inactive: -0.026 | inactive: 0.085 | inactive: 0.041
12 | ADRM1 (UniProt Q16186) | inactive: -0.01 | inactive: 0.033 | inactive: 0.031 | inactive: -0.026 | inactive: -0.036 | inactive: 0.008 | inactive: -0.024 | inactive: -0.027 | inactive: 0 | inactive: 0.002 | inactive: 0.009 | inactive: -0.064 | inactive: -0.027 | inactive: 0.003 | inactive: 0.011 | inactive: -0.033 | inactive: 0.118 | inactive: 0.032 | inactive: -0.001 | inactive: -0.009
13 | ACOX1 isoform 2 (UniProt Q15067) | inactive: 0.017 | inactive: 0.003 | inactive: -0.029 | inactive: 0.015 | inactive: 0.053 | inactive: -0.026 | inactive: -0.038 | inactive: 0.1 | inactive: -0.014 | inactive: 0.004 | inactive: -0.049 | inactive: 0.041 | inactive: 0.012 | inactive: 0.012 | inactive: 0.017 | inactive: -0.015 | active: -0.255 | inactive: 0 | inactive: 0.01 | inactive: 0.018
14 | AHCYL2 (UniProt Q96HN2) | inactive: -0.025 | inactive: -0.013 | inactive: 0.013 | inactive: 0.044 | inactive: -0.008 | inactive: -0.009 | inactive: 0.003 | inactive: 0.036 | inactive: -0.073 | inactive: 0.001 | inactive: -0.05 | inactive: -0.031 | inactive: 0.028 | inactive: 0.016 | inactive: 0.144 | inactive: -0.004 | inactive: -0.05 | inactive: -0.059 | inactive: 0.024 | inactive: -0.026
15 | AKR1C2 (UniProt P52895) | inactive: 0.001 | inactive: 0.018 | inactive: -0.008 | inactive: 0.008 | inactive: -0.018 | inactive: -0.043 | active: -0.369 | inactive: 0.148 | inactive: 0.062 | inactive: 0.006 | inactive: -0.06 | inactive: 0.061 | inactive: -0.021 | inactive: -0.05 | inactive: -0.151 | inactive: -0.012 | inactive: 0.018 | inactive: 0.002 | inactive: 0.004 | inactive: -0.082

2 entries picked at random from those above:
Row | Target | log2 fold change [1] | log2 fold change [2] | log2 fold change [3] | log2 fold change [4] | log2 fold change [5] | log2 fold change [6] | log2 fold change [7] | log2 fold change [8] | log2 fold change [9] | log2 fold change [10] | log2 fold change [11] | log2 fold change [12] | log2 fold change [13] | log2 fold change [14] | log2 fold change [15] | log2 fold change [16] | log2 fold change [17] | log2 fold change [18] | log2 fold change [19] | log2 fold change [20]
7 | AGAP3 isoform 4 (UniProt Q96P47) | inactive: -0.063 | inactive: 0.042 | inactive: 0.006 | inactive: -0.02 | inactive: -0.026 | inactive: 0.01 | inactive: 0.036 | inactive: -0.035 | inactive: 0.005 | inactive: 0.072 | inactive: -0.005 | inactive: -0.017 | inactive: 0.044 | inactive: -0.02 | inactive: -0.026 | inactive: 0.038 | inactive: 0.025 | inactive: -0.005 | inactive: -0.001 | inactive: 0.026
10 | ACSF3 (UniProt Q4G176) | inactive: 0.074 | inactive: 0.07 | inactive: 0.014 | inactive: 0.025 | inactive: -0.068 | inactive: 0.022 | inactive: -0.058 | inactive: -0.066 | inactive: -0.014 | inactive: 0.005 | inactive: -0.025 | inactive: -0.037 | inactive: 0.027 | inactive: 0.035 | inactive: -0.013 | inactive: -0.052 | inactive: -0.044 | inactive: 0.014 | inactive: -0.023 | inactive: 0.052
